Assay results taken from US20240190996A1.
No constants are given. Whether binding was seen depends on the method and setting. Some binding calls cover weakened binding; strength is not graded here.

Molecular target: mfFXI.mmh (REGN3883) (cynomolgus monkey (Macaca fascicularis))
Assay: SPR (Biacore), REGN7508 captured on anti-hFcG, 25C, pH 7.4

binding: binds
B1: REGN7508 (antibody, human IgG4 S228P, kappa, V domains shown)
VH: QVQLVESGGGLVKPGGSLRLSCAASGFTFSDYSMNWIRQAPGKGLEWISYISFSGNSIYYADSVKGRFTISRDNAKNSLYLQMNSLRVEDTAIYYCTSRDWGYAFDIWGQGTMVTVSS
VL: DIQMTQSPSFLSASLGDRVTITCQASQDISNYLNWYQVKPGKAPKLLIYDASNLETGVPSRFSGSGSGTDFTFTISSLQPEDIATYFCQQYDNLPYIFGQGTKLEIKR
